US20240124586A1
These are yes or no findings as the source states them, for the method shown. Some results given as binding are weak or reduced against the parent protein; the word gives no strength. Blank lines part the entries; values can stand above or below the binder they belong to.

Amino acid sequences for entries named in this document (tags omitted). A change or cut given only in a name is not applied to a line headed by its entry. Residues count along the entry.
UniProt Q15116, residues 25-288: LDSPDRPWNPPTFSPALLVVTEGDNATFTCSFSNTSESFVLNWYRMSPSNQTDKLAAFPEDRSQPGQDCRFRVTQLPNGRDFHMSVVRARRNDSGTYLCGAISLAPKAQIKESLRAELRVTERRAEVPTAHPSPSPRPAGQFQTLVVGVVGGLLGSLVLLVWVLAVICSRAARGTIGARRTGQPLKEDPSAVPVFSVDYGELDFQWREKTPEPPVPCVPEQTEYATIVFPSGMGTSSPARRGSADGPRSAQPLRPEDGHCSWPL
UniProt P16410, residues 36-223: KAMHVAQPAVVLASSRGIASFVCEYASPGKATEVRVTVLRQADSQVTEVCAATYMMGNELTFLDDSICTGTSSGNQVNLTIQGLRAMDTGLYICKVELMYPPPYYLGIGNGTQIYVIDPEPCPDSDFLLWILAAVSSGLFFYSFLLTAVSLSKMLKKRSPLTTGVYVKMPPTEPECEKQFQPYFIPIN
UniProt P15391, residues 20-556: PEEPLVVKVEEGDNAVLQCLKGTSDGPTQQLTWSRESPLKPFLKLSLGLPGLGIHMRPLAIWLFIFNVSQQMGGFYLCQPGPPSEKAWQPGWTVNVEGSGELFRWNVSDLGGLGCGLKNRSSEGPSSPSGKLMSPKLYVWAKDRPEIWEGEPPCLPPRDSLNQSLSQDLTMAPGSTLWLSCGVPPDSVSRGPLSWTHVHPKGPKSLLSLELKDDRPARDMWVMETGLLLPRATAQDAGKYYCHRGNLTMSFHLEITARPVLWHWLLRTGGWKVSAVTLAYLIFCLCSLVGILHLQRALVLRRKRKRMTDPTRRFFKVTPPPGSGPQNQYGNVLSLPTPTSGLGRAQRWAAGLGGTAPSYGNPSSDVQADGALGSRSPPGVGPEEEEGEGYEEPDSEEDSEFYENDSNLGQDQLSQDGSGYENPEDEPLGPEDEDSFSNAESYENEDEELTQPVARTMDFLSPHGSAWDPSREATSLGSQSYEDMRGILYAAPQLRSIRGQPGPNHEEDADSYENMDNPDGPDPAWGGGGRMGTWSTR

Key:
[1] = molecular target: human PD-1 on engineered CHO-S cells (W305-CHO-S.hPro1.C6) (human) (UniProt Q15116); test: FACS on human PD-1 engineered cells
[2] = molecular target: human CTLA-4 on engineered 293F cells (W316-293F.hPro1.FL) (human) (UniProt P16410); test: FACS on human CTLA-4 engineered cells
[3] = molecular target: human CD19 on CD19+ B cell lines (Ramos, Raji) (human) (UniProt P15391); test: FACS on CD19+ Ramos cells
[4] = molecular target: human CD19 on CD19+ B cell lines (Ramos, Raji) (human) (UniProt P15391); test: FACS binding to Ramos cells after 0, 1, 4, 7 and 14 days in human serum at 37 C

binding [1]: binds
binding [2]: binds
B1: U6T5.G19R.IgG4, bispecific anti-PD-1 x CTLA-4 (bispecific antibody)
heavy: EVQLLESGGGLVQPGGSLRLSCAASGFTFSSHAMSWVRQAPGKGLEWVSTITGGGGSIYYADSVKGRFTISRDNSKNTLYLQMNSLRAEDTAVYYCAKNRAGEGYFDYWGQGTLVTVLEDLKNVFPPEVAVFEPSEAEISHTQKATLVCLATGFYPDHVELSWWVNGKEVHSGVCTDPQPLKEQPALQDSRYALSSRLRVSATFWQNPRNHFRCQVQFYGLSENDEWTQDRAKPVTQIVSAEAWGRYGPPCPPCPAPEFLGGPSVFLFPPKPKDTLMISRTPEVTCVVVDVSQEDPEVQFNWYVDGVEVHNAKTKPREEQFNSTYRVVSVLTVLHQDWLNGKEYKCKVSNKGLPSSIEKTISKAKGQPREPQVYTLPPSQEEMTKNQVSLTCLVKGFYPSDIAVEWESNGQPENNYKTTPPVLDSDGSFFLYSRLTVDKSRWQEGNVFSCSVMHEALHNHYTQKSLSLSLGGGGGSGGGGSGGGGSGGGGSQVQLVQSGAEVKKPGSSVKVSCKASGYTFTNYFMNWVRQAPGQGLEWMGRVDPEQGRADYAEKFKKRVTITADKSTSTAYMELSSLRSEDTAVYYCARRAMDNYGFAYWGQGTLVTVSSASTKGPSVFPLAPCSRSTSESTAALGCLVKDYFPEPVTVSWNSGALTSGVHTFPAVLQSSGLYSLSSVVTVPSSSLGTKTYTCNVDHKPSNTKVDKRV
light 1: SYELTQPLSVSVALGQTARITCGGDNIGNKDVHWYQQKPGQAPVLVIYRDSNRPSGIPEGFSGSNSGNTATLTISRAQAGDEADYYCQVWDSIWVFGGGTKLTVLPDIQNPDPAVYQLRDSKSSDKSVCLFTDFDSQTQVSQSKDSDVYITDKCVLDMRSMDFKSNSAVAWSQKSDFACANAFQNSIIPEDTFFPSPESS
light 2: EIVLTQSPDFQSVTPKEKVTITCSANSALSYMYWYQQKPDQSPKLWVHGTSNLASGVPSRFSGSGSGTDFTLTINSLEAEDAATYYCHHWSNTQWTFGGGTKVEIKRTVAAPSVFIFPPSDEQLKSGTASVVCLLNNFYPREAKVQWKVDNALQSGNSQESVTEQDSKDSTYSLSSTLTLSKADYEKHKVYACEVTHQGLSSPVTKSFNRGEC

binding [3]: binds
binding [4]: binds
B2: W3438-T3U4.E17-1.uIgG4.SP, bispecific anti-CD3 x CD19 (bispecific antibody)
heavy 1: QVQLVQSGAEVKKPGSSVKVSCKASGFAFTDYYIHWVRQAPGQGLEWMGWISPGNVNTKYNENFKGRVTITADKSTSTAYMELSSLRSEDTAVYYCARDGYSLYYFDYWGQGTLVTVLEDLKNVFPPEVAVFEPSEAEISHTQKATLVCLATGFYPDHVELSWWVNGKEVHSGVCTDPQPLKEQPALQDSRYALSSRLRVSATFWQNPRNHFRCQVQFYGLSENDEWTQDRAKPVTQIVSAEAWGRYGPPCPPCPAPEFLGGPSVFLFPPKPKDTLMISRTPEVTCVVVDVSQEDPEVQFNWYVDGVEVHNAKTKPREEQFNSTYRVVSVLTVLHQDWLNGKEYKCKVSNKGLPSSIEKTISKAKGQPREPQVYTLPPCQEEMTKNQVSLWCLVKGFYPSDIAVEWESNGQPENNYKTTPPVLDSDGSFFLYSRLTVDKSRWQEGNVFSCSVMHEALHNHYTQKSLSLSLGK
light 1: DIVMTQSPDSLAVSLGERATINCKSSQSLLNSRTRKNYLAWYQQKPGQPPKLLIYWASTRQSGVPDRFSGSGSGTDFTLTISSLQAEDVAVYYCTQSHTLRTFGGGTKVEIKPDIQNPDPAVYQLRDSKSSDKSVCLFTDFDSQTQVSQSKDSDVYITDKCVLDMRSMDFKSNSAVAWSQKSDFACANAFQNSIIPEDTFFPSPESS
heavy 2: QMQLVQSGPEVKKPGTSVKVSCKASGYAFTSYNMYWVRQARGQRLEWIGYIDPYNGDTTYNQKFKGRVTITRDMSTSTAYMELSSLRSEDTAVYYCLTTAYAMDYWGQGTLVTVSSASTKGPSVFPLAPCSRSTSESTAALGCLVKDYFPEPVTVSWNSGALTSGVHTFPAVLQSSGLYSLSSVVTVPSSSLGTKTYTCNVDHKPSNTKVDKRVESKYGPPCPPCPAPEFLGGPSVFLFPPKPKDTLMISRTPEVTCVVVDVSQEDPEVQFNWYVDGVEVHNAKTKPREEQFNSTYRVVSVLTVLHQDWLNGKEYKCKVSNKGLPSSIEKTISKAKGQPREPQVCTLPPSQEEMTKNQVSLSCAVKGFYPSDIAVEWESNGQPENNYKTTPPVLDSDGSFFLVSRLTVDKSRWQEGNVFSCSVMHEALHNHYTQKSLSLSLGK
light 2: DIQLTQSPSFLSASVGDRVTITCSASSTVNYMHWYQQKPGKAPKLLIYSTSNLASGVPSRFSGSGSGTEFTLTISSLQPEDFATYYCHQWSSYPYTFGQGTKLEIKRTVAAPSVFIFPPSDEQLKSGTASVVCLLNNFYPREAKVQWKVDNALQSGNSQESVTEQDSKDSTYSLSSTLTLSKADYEKHKVYACEVTHQGLSSPVTKSFNRGEC
